No constants are given. Whether binding was seen depends on the method and setting. Binding can be weak; no strength is given.

The experiment concerns the target cynomolgus monkey GITR on PBMCs (cynomolgus monkey). The experiment in a line: FACS, Alexa488-labelled antibody on PHA-stimulated cynomolgus monkey PBMCs. (A flow cytometer gives signals particle by particle.)

B1: anti-GITR antibody clone 1718 (antibody, V domains shown)
VH: QVQVQQSGPELVKPGASVRISCKASDYTFTNYYIHWVRQRPGQGLEWLGWIYPGKGYTNYNEKFKGKATLTADKSSSTAYMQFSSLTSEDSAVYFCASGYGNYYFPYWGQGTLVTVSA
VL: IQMTQSSSYLSVSLGGRVTITCKASDHIKNWLAWYQQKPGNVPRLLMSAATSLETGFPSRFSGSGSGKDFTLTITSLQTEDVATYYCQQYWSTPWTFGGGTKLEIK
Turning to B1, the binding result was “binds”.

The values above are taken from patent US20130108641A1.
